The series is described as follows: general procedure: Fmoc solid-phase peptide synthesis; Rink-amide MBHA resin or CTC resin; HATU/DIEA; DIC/Oxyma on the synthesizer. As to conditions: for cyclisation yield: cyclisation step; for final HPLC purity / isolated yield: whole synthesis; for final HPLC purity: analysis on a C18 column, flow rate 1 mL/min; for isolated yield: overall.
Setting [1] is: for this step, one disulfide bridge.

“MeCO-Pen(3)-E(2)-T-7MeW-K(Ac)-Pen(3)-AEF(2)-6OH2Nal-THP-K(Ac)-N-3Pya-Sar-CONH2” displayed a cyclisation yield (for this step, bicyclic) of 8.28% yield for this step. Besides, for the setting “bicyclic”, the “final HPLC purity” value is reported as 98.2% purity and the isolated yield entry is on record as “over all yield: 7.41%”.
“MeCO-Pen(3)-N(N(Me)2)-T-7MeW-Dab(NMecarn)-Pen(3)-AEF-6OH2Nal-THP-Dab(NMecarn)-N-3Pya-Sar-CON(Me)2”: the cyclisation yield entry (one disulfide bridge) is reported as “Yield=23%”.
The substance “MeCO-Pen(3)-N-T-7MeW-K(Ac)-Pen(3)-AEF-6OH2Nal-THP-E-N-3Pya-Sar-K(PEG2PEG2gEC18OH)—CONH2” showed a cyclisation yield under setting [1] of 12.9% yield for this step. For the setting “one disulfide bridge”, the “final HPLC purity” value is 96.1% purity and the isolated yield result is reported as “over all yield: 10.6%”.
On to “MeCO-k(d)-Pen(3)-N-T-7MeW-K(Ac)-Pen(3)-AEF-6OH2Nal-THP-E-N-3Pya-Sar-CONH2”, for which the cyclisation yield result (one disulfide bridge) is recorded as “Yield=31%”.
Regarding “MeCO-r-Pen(3)-N-T-7(3NAcPh)W-K(Ac)-Pen(3)-AEF-6OH2Nal-THP-E-N-3Pya-Sar-CONH2”, the cyclisation yield under setting [1] came out at 26.0% yield for this step. Further, for the setting “one disulfide bridge”, the “final HPLC purity” value is on record as 90.8% purity and the isolated yield entry was “over all yield: 21.4%”.
On the same counts, the results for “MeCO-r-Pen(3)-N-T-7MeW-K(Ac)-Pen(3)-AEF-6OH2Nal-THP-E-N-3Pya-Sar-K(PEG2NMePEG2NMegENMeCl8Tetrazole)-CONH2” are 8.08% yield for this step, 96.1% purity and “over all yield: 6.08%”.
On the same counts, the results for “MeCO-r-Pen(3)-N-T-7MeW-K(Ac)-Pen(3)-AEF-6OH2Nal-THP-E-N-3Pya-Sar-K(PEG2PEG2gEC18OH)—CONH2” are 12.1% yield for this step, 93.2% purity and “over all yield: 10.4%”.
Take “cPEG3aCO-Pen(3)-N-T-7MeW-K(NMecPEG3a)-Pen(3)-AEF-6OH2Nal-THP-K(NMecPEG3a)-N-3Pya-Sar-CONH2”: under setting [1], the cyclisation yield is given as 11.7% yield for this step. Further, under “one disulfide bridge”, the “final HPLC purity” value is listed as 96.9% purity and the isolated yield entry is given as “over all yield: 9.54% yield”.

(Values after patent publication US20240279281A1 (Janssen Pharmaceutica NV, priority 2023, published 2024).)
